The assay concerns the target His6-TglH (monomer seen in native MS) (Pseudomonas syringae pv. maculicola str. ES4326). Kind of assay: native MS; purified TglHI (His6-TglH coexpressed and co-purified with TglI) observed as intact heterodimer; both purified.

Amino acid sequences for entries named in this document (tags omitted). A change or cut given only in a name is not applied to a line headed by its entry.
UniProt A0A8T8BZN3: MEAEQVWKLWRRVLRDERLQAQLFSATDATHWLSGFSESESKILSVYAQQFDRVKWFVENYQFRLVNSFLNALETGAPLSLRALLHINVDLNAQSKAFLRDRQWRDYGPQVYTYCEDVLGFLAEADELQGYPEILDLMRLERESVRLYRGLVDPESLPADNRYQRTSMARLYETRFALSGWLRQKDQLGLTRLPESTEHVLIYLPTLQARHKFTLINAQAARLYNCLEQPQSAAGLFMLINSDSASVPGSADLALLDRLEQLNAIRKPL

No constants are given. Whether binding was seen depends on the method and setting. Binding seen in cells or lysates may run through a third protein. A result given as binding can be weak or reduced; the word gives no strength.

In the case of “TglI (monomer seen in native MS) (from UniProt A0A8T8BZN3)”, the binding result is given as “binds”.

(Values after PMC9016710.)
